Structures can show the parent of a compound that is named as a salt. Some of the results follow. Most values lie within the scatter of the assay; repeated measurements hardly agree.
Tested on: MDA-MB-468
Test: phospho-S6 immunofluorescence (DAPI-normalised), per-plate z-score; higher = higher phospho-S6 signal (less pathway suppression)
Details: 24 h
Description: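 GPCR-targeted compound library (MedChemExpress HY-L006) tested on MDA-MB-468 PTEN-null TNBC cells in 384-well plates at 0.1, 1 or 10 uM, combined with vehicle, GDC0941 450 nM or lapatinib 1 uM, for 24 h. Phospho-S6 (S240/244) immunofluorescence normalised to DAPI and expressed as a per-plate z-score; values are the mean of biological triplicates.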

[1] = compound 0.1 µM, co-treatment: GDC0941 450 nM
[2] = compound 0.1 µM, co-treatment: lapatinib 1 uM
[3] = compound 0.1 µM, co-treatment: vehicle
[4] = compound 1 µM, co-treatment: GDC0941 450 nM
[5] = compound 1 µM, co-treatment: lapatinib 1 uM
[6] = compound 1 µM, co-treatment: vehicle
[7] = compound 10 µM, co-treatment: GDC0941 450 nM
[8] = compound 10 µM, co-treatment: lapatinib 1 uM
[9] = compound 10 µM, co-treatment: vehicle

SMILES	phospho-S6 immunofluorescence (z-score) [1]	phospho-S6 immunofluorescence (z-score) [2]	phospho-S6 immunofluorescence (z-score) [3]	phospho-S6 immunofluorescence (z-score) [4]	phospho-S6 immunofluorescence (z-score) [5]	phospho-S6 immunofluorescence (z-score) [6]	phospho-S6 immunofluorescence (z-score) [7]	phospho-S6 immunofluorescence (z-score) [8]	phospho-S6 immunofluorescence (z-score) [9]
O=C1CCC(c2ccccc2)(C2CCN(Cc3ccccc3)CC2)C(=O)N1 (configuration not stated) [Benzetimide (hydrochloride)]	-1.12	0.17	0.04	0.8	-0.99	0.49			
Cc1cc2c(cc1CC(=O)c1sccc1S(=O)(=O)Nc1onc(C)c1Cl)OCO2 [Sitaxsentan (sodium)]	1.67	-0.48	0.05	-0.01	0.62	0.22	0.35	0.35	0.45
C[C@@H]1C[C@H]2[C@@H]3CCC4=CC(=O)C=C[C@]4(C)[C@@]3(F)[C@@H](O)C[C@]2(C)[C@@]1(O)C(=O)CO [Dexamethasone]	-1.21	0.85	0.52	-0.08	0.78	1	0.1	0.34	1.02
C[C@H]1C[C@@H]2[C@H]([C@@H](O)C[C@@]3(C)[C@H]2CC[C@]3(O)C(=O)CO)[C@@]2(C)C=CC(=O)C=C12 [Methylprednisolone]	-0.92	1.6	0.58	-1.17	2.79	0.18	0.3	3.09	0.51
CC[C@@H](Nc1c(Nc2cccc(C(=O)N(C)C)c2O)c(=O)c1=O)c1ccc(C)o1	0.47	0.21	1.67	0.25	0.05	1.15	0.29	-0.41	2.26

Reference: the supplement of paper PMC7411640
